The other results are listed elsewhere or left out.
Key:
Experiment in all cases: log2 fold change, soluble protein after heating vs DMSO (PISA); higher = thermal stabilisation; K562 lysate, 10 uM; active = over 0.2 and 3.5 SD of the protein, either way, in both replicates (recomputed)
[1] = compound: C#Cc1cccc(Nc2ncnc3cc(OCCOC)c(OCCOC)cc23)c1 [erlotinib]
Method in brief: (§1)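 Dounce homogenisation of K562 pellets in PBS pH 7.4 with 1 mM MgCl2 produced a crude extract, used at 1 mg/mL protein. Exposure to 10 μM compound lasted 30 min, and aliquots were then heated for 3 min across 48°C-58°C, pooled and brought to 0.5% NP-40 at 4°C. The supernatant after 21,000xg for 90 min was quantified by TMTpro 16plex LC-MS/MS with channel sums equalised. Duplicate values are given as log-two fold change in thermal stability relative to solvent controls.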

By UniProt entry, the sequences of proteins in these tests, tags left out. Where a name states a change or a piece, a line headed by the entry shows the natural chain unless it says otherwise.
UniProt O94964: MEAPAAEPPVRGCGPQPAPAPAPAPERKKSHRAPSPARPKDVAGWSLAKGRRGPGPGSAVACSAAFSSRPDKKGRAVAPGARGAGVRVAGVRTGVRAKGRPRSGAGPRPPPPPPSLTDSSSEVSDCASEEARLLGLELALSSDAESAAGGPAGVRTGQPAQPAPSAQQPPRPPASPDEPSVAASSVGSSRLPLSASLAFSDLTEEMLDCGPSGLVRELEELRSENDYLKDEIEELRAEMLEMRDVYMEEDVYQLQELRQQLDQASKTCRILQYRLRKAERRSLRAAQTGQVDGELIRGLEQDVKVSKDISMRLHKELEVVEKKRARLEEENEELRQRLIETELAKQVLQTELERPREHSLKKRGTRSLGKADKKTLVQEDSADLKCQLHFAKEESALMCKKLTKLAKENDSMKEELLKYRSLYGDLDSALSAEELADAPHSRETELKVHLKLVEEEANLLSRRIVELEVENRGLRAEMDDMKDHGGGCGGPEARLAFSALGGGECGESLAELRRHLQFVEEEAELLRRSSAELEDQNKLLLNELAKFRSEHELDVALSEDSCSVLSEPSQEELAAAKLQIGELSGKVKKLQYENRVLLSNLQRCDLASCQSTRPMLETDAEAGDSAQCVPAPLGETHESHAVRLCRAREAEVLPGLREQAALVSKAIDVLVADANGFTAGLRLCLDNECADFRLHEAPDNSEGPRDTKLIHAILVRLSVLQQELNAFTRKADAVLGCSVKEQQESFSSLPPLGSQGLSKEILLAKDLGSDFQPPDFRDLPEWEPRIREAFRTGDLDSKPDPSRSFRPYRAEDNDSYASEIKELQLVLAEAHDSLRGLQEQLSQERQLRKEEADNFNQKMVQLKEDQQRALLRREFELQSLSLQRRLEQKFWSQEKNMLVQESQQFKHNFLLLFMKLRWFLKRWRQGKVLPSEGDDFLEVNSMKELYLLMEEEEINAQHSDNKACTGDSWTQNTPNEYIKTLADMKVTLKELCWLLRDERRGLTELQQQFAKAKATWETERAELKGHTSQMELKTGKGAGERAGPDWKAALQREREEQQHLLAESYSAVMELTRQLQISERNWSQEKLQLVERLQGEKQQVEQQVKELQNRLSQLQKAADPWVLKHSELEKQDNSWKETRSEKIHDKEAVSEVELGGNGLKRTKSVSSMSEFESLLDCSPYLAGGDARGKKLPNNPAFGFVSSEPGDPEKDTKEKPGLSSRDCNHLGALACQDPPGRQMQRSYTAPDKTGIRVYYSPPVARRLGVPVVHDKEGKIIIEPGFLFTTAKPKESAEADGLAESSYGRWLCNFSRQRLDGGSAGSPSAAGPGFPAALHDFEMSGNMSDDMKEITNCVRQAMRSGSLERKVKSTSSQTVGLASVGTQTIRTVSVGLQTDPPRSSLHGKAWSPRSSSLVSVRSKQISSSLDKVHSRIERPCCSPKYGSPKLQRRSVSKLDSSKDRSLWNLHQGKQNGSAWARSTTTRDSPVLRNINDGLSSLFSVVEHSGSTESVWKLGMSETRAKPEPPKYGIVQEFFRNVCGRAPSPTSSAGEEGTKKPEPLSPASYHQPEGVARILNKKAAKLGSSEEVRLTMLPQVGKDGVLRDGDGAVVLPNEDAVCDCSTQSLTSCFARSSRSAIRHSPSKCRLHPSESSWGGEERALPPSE
UniProt P17405: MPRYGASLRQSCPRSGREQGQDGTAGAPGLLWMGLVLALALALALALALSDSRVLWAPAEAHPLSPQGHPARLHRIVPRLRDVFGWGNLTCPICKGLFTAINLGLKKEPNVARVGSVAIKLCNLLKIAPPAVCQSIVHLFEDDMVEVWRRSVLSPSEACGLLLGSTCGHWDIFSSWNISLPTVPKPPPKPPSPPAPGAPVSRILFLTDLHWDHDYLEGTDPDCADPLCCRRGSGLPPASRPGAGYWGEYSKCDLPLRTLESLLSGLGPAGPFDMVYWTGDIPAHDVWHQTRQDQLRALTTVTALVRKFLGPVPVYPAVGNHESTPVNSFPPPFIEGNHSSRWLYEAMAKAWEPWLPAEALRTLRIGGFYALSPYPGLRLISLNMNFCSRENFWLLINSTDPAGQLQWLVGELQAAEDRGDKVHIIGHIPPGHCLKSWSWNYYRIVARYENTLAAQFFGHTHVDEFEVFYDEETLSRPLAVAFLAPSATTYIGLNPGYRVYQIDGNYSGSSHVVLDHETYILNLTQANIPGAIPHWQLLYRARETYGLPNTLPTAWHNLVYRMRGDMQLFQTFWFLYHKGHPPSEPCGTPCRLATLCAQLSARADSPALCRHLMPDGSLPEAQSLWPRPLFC
UniProt Q02446, whole entry, looked up: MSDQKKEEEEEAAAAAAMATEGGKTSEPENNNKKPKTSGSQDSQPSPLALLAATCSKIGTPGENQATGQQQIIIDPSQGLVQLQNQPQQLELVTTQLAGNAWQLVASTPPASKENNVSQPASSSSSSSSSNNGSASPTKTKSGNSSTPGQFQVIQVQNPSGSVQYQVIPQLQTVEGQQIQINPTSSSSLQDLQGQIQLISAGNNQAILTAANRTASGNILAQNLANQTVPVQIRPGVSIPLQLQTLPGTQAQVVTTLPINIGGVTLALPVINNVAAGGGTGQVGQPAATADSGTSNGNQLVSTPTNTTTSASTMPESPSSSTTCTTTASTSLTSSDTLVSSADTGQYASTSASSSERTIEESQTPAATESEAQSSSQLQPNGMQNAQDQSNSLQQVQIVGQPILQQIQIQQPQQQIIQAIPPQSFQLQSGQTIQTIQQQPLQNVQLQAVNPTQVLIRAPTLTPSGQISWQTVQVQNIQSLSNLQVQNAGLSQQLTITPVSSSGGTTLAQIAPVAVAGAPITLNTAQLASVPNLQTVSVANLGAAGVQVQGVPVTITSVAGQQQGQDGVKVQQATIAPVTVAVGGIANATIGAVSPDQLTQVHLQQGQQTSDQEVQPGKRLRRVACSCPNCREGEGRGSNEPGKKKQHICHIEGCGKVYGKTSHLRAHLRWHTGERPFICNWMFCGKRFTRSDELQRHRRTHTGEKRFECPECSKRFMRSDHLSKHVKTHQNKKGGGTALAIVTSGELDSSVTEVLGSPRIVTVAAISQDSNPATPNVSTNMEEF
UniProt Q92543: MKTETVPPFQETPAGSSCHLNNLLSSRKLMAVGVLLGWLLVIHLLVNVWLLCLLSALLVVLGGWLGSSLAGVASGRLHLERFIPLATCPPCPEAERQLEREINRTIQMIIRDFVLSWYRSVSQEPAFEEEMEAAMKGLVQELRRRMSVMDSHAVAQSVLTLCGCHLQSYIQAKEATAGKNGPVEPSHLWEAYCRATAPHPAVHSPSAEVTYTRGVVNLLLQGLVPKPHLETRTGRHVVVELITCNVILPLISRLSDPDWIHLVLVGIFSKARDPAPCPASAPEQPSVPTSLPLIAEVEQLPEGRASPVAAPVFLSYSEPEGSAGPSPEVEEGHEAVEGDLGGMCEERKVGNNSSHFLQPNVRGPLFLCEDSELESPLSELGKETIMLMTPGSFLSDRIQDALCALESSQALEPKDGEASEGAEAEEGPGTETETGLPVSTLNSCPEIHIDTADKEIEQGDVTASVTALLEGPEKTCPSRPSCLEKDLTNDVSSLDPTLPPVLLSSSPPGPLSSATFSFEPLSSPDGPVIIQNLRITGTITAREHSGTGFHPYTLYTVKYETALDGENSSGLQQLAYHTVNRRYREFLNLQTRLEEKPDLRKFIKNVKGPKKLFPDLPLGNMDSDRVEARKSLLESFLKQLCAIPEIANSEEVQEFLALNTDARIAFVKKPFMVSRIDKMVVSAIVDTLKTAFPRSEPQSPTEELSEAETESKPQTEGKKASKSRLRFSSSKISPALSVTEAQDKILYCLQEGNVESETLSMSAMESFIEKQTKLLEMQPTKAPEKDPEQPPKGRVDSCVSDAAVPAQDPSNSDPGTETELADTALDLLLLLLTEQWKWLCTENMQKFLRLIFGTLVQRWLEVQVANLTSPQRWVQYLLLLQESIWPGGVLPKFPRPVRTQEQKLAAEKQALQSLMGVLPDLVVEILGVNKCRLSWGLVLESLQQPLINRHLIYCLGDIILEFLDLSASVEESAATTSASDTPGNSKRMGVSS

[2] = compound: C/C(=N\NC(=O)C1=CC(=CC=C1)S(=O)(=O)N2CCOCC2)/C3=C(C=CC(=C3)Cl)O
Method in brief: as §1

[3] = compound: C1=CC(=CC=C1C2=NC3=C(N2)C=C(C=C3)C(=O)N)OC4=CC=C(C=C4)Cl
Method in brief: as §1

[4] = compound: C1=CC2=C(C=CC(=C2)/C=C\3/C(=O)NC(=NCC4=CC=CS4)S3)N=C1
Method in brief: as §1

[5] = compound: C1=CC2=NC=CN=C2C=C1/C=C/3\C(=O)NC(=O)S3
Method in brief: as §1

[6] = compound: C1=CC=C(C=C1)C2=NC(=C(N2)C3=CC=NC=C3)C4=CC(=C(C=C4)Cl)O
Method in brief: as §1

[7] = compound: C1=CC=C2C(=C1)C3=NNC4=CC=CC(=C43)C2=O
Method in brief: as §1

[8] = compound: C1CCN(C1)C(=O)NC2=CC=CC(=C2)NC3=NC=C(C(=N3)NCCC4=CN=CN4)Br
Method in brief: as §1

[9] = compound: C1CN(CCC1(CC2=CC=C(C=C2)Cl)N)C3=NC=NC4=C3C=CN4
Method in brief: as §1

[10] = compound: C1COCCN1CCN2C3=CC=CC=C3N=C2NC(=O)C4=CC(=CC=C4)[N+](=O)[O-] [IRAK-1-4 Inhibitor I]
Method in brief: as §1

[11] = compound: C=CC(=O)N1CCC[C@@H](n2nc(-c3ccc(Oc4ccccc4)cc3)c3c(N)ncnc32)C1 [ibrutinib]
Method in brief: as §1

[12] = compound: CC(C)(C)Cn1c(N)nc2ccc(-c3[nH]c(C(C)(C)C)nc3-c3ccc(F)cc3)nc21 [ralimetinib]
Method in brief: as §1

[13] = compound: CC(C)(O)CC(=O)NCCn1ccc2ncnc(Nc3ccc(Oc4cccc(C(F)(F)F)c4)c(Cl)c3)c21
Method in brief: as §1

[14] = compound: CC(C)C1=C2N=C(C=C(N2N=C1)NCC3=CC=CC=C3)NCCCCCCN
Method in brief: as §1

[15] = compound: CC1=C(C(CC(=O)N1)C2=CC=C(C=C2)C(F)(F)F)C(=O)NC3=C(C=C4C(=C3)C=NN4)F
Method in brief: as §1

[16] = compound: CC1=C(C2=C(C=C1)C(=O)C3=CC=CC=C3N2CCCN)C
Method in brief: as §1

[17] = compound: CC1=C(C=C(C=C1)NC(=O)C2=CC(=CC=C2)C(C)(C)C#N)NC3=CC4=C(C=C3)N=CN(C4=O)C
Method in brief: as §1

[18] = compound: CC1=C(C=C(C=C1)NC(=O)C2=CC(=CC=C2)N(C)C)NC(=O)C3=CC=C(C=C3)O
Method in brief: as §1

[19] = compound: CC(=O)c1cnc2ccc(-c3cc(Cl)c(O)c(Cl)c3)nc2c1N[C@H]1CC[C@H](CN(C)C)CC1
Method in brief: as §1

[20] = compound: CC1=CC=C(C=C1)SC2=C3C=C(SC3=CN=C2)C(=O)N
Method in brief: as §1

Measured: log2 fold change

SOGA1 isoform 2 (UniProt O94964)
inactive: [1] -0.038 | [2] 0.021 | [3] -0.022 | [4] -0.083 | [5] -0.136 | [6] -0.009 | [7] -0.035 | [8] 0.053 | [9] 0.014 | [10] 0 | [11] -0.055 | [12] 0.022 | [13] 0.014 | [14] 0.038 | [15] 0.029 | [16] -0.028 | [17] 0.027 | [18] 0.007

SMPD1 (UniProt P17405)
inactive: [1] -0.022 | [3] 0.03 | [5] 0.051 | [6] -0.021 | [10] 0.09 | [11] 0.002 | [12] -0.038 | [13] -0.065 | [14] -0.032 | [15] 0.004 | [16] -0.109 | [17] -0.096 | [18] -0.035

SP4 (UniProt Q02446)
inactive: [1] 0 | [2] -0.021 | [3] -0.186 | [4] 0.218 | [5] 0.021 | [6] -0.094 | [7] -0.332 | [8] -0.046 | [9] -0.02 | [10] 0.023 | [11] 0.163 | [19] 0.006 | [12] -0.053 | [13] -0.196 | [14] 0.073 | [16] 0 | [17] -0.104 | [18] -0.018 | [20] 0.086

2 successive entries already listed:
SMPD1 (UniProt P17405)
inactive: [1] -0.022 | [3] 0.03 | [5] 0.051 | [6] -0.021 | [10] 0.09 | [11] 0.002 | [12] -0.038 | [13] -0.065 | [14] -0.032 | [15] 0.004 | [16] -0.109 | [17] -0.096 | [18] -0.035

SP4 (UniProt Q02446)
inactive: [1] 0 | [2] -0.021 | [3] -0.186 | [4] 0.218 | [5] 0.021 | [6] -0.094 | [7] -0.332 | [8] -0.046 | [9] -0.02 | [10] 0.023 | [11] 0.163 | [19] 0.006 | [12] -0.053 | [13] -0.196 | [14] 0.073 | [16] 0 | [17] -0.104 | [18] -0.018 | [20] 0.086

Next part.

SNRPD2 (UniProt K7EJB5)
inactive: [1] -0.076 | [2] 0 | [3] -0.036 | [4] -0.106 | [6] -0.12 | [7] 0.055 | [8] 0.088 | [9] 0.037 | [10] -0.03 | [19] -0.004 | [12] 0.142 | [13] -0.075 | [14] 0.014 | [15] 0.052 | [16] -0.022 | [17] -0.011 | [18] 0.069 | [20] -0.01

SNX19 (UniProt Q92543)
inactive: [1] 0.012 | [3] 0.19 | [6] 0.021 | [8] 0.043 | [9] 0.087 | [10] 0.035 | [12] -0.045 | [13] -0.08 | [14] -0.005 | [15] 0.029 | [16] -0.234 | [17] -0.076 | [18] 0.096

From the supplement of paper PMC10849652
